Laboratory results reported in article PMC9088184.
Results are given in words; binding and its absence hold for the method and conditions named. In cells and extracts the contact can be indirect. Some binding calls cover weakened binding; strength is not graded here. For part of these data: Tags and fused reporters may be left off the sequences shown.

Amino acid sequences for entries named in this document (tags omitted).
UniProt P49841: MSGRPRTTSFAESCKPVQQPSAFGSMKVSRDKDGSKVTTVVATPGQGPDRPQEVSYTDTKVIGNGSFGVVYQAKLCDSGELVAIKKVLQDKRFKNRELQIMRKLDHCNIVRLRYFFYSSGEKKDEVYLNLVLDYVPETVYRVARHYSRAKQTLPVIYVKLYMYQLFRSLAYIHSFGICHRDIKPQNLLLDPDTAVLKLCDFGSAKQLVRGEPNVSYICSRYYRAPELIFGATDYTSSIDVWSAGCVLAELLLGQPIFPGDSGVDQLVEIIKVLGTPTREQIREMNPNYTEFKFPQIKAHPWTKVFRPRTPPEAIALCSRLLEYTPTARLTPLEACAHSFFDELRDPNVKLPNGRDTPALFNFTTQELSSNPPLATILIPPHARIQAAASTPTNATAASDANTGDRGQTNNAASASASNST
UniProt O95433: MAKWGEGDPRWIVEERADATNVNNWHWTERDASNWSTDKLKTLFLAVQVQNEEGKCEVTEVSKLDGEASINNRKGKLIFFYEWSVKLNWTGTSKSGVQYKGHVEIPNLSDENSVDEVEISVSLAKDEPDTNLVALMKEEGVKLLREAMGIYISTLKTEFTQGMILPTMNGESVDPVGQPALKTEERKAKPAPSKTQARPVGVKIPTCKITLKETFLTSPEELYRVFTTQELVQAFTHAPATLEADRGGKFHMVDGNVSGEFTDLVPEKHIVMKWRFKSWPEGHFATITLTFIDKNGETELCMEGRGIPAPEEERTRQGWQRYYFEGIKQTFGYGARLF

Tests used:
PGK1-Flag = molecular target: T1, PGK1-Flag (UniProt P00558); test: co-IP; MCF-7ADR cells transfected with 2 μg PGK1-Flag plasmid for 48 h; PGK1-Flag immunoprecipitated with an anti-flag antibody; immunoblot
T1 sequence: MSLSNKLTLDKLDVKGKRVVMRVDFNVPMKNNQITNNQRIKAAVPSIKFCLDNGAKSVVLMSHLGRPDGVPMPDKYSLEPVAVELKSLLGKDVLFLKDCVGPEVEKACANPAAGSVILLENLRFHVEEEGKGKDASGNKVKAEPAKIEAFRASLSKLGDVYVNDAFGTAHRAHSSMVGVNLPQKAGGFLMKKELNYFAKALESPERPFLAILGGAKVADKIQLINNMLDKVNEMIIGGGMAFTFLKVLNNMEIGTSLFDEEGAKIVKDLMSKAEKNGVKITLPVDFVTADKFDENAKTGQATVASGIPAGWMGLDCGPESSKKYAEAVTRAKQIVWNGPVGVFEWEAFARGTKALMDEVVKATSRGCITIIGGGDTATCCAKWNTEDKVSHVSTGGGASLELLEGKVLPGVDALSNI

[1] = molecular target: Glycogen synthase kinase-3β (human (endogenous in MCF-7ADR, 293T, breast cancer tissue)) (UniProt P49841); test: co-IP; endogenous GSK3β immunoprecipitated from MCF-7ADR cell lysate with an anti-GSK3β antibody (IgG control), protein A/G-agarose, 6 washes (50 mM Tris-HCl, 150 mM NaCl, 1% Triton, pH 7.5); immunoblot

HOP (from UniProt P31948 1-543)
binding (PGK1-Flag): no binding

Glycogen synthase kinase-3β (from UniProt P49841 1-420)
binding (PGK1-Flag): binds

Aha1 (from UniProt O95433 1-338)
binding (PGK1-Flag): binds | binding [1]: binds

B1: P23 (protein, UniProt Q15185 1-160)
chain: MQPASAKWYDRRDYVFIEFCVEDSKDVNVNFEKSKLTFSCLGGSDNFKHLNEIDLFHCIDPNDSKHKRTDRSILCCLRKGESGQSWPRLTKERAKLNWLSVDFNNWKDWEDDSDEDMSNFDRFSEMMNNMGGDEDVDLPEVDGADDDSQDSDDEKMPDLE
binding (PGK1-Flag): binds | binding [1]: binds

B2: PP5 (protein, UniProt P53041 1-499)
chain: MAMAEGERTECAEPPRDEPPADGALKRAEELKTQANDYFKAKDYENAIKFYSQAIELNPSNAIYYGNRSLAYLRTECYGYALGDATRAIELDKKYIKGYYRRAASNMALGKFRAALRDYETVVKVKPHDKDAKMKYQECNKIVKQKAFERAIAGDEHKRSVVDSLDIESMTIEDEYSGPKLEDGKVTISFMKELMQWYKDQKKLHRKCAYQILVQVKEVLSKLSTLVETTLKETEKITVCGDTHGQFYDLLNIFELNGLPSETNPYIFNGDFVDRGSFSVEVILTLFGFKLLYPDHFHLLRGNHETDNMNQIYGFEGEVKAKYTAQMYELFSEVFEWLPLAQCINGKVLIMHGGLFSEDGVTLDDIRKIERNRQPPDSGPMCDLLWSDPQPQNGRSISKRGVSCQFGPDVTKAFLEENNLDYIIRSHEVKAEGYEVAHGGRCVTVFSAPNYCDQMGNKASYIHLQGSDLRPQFHQFTAVPHPNVKPMAYANTLLQLGMM
binding (PGK1-Flag): no binding | binding [1]: no binding

B3: FKBP5 (protein, UniProt Q13451 1-457)
chain: MTTDEGAKNNEESPTATVAEQGEDITSKKDRGVLKIVKRVGNGEETPMIGDKVYVHYKGKLSNGKKFDSSHDRNEPFVFSLGKGQVIKAWDIGVATMKKGEICHLLCKPEYAYGSAGSLPKIPSNATLFFEIELLDFKGEDLFEDGGIIRRTKRKGEGYSNPNEGATVEIHLEGRCGGRMFDCRDVAFTVGEGEDHDIPIGIDKALEKMQREEQCILYLGPRYGFGEAGKPKFGIEPNAELIYEVTLKSFEKAKESWEMDTKEKLEQAAIVKEKGTVYFKGGKYMQAVIQYGKIVSWLEMEYGLSEKESKASESFLLAAFLNLAMCYLKLREYTKAVECCDKALGLDSANEKGLYRRGEAQLLMNEFESAKGDFEKVLEVNPQNKAARLQISMCQKKAKEHNERDRRIYANMFKKFAEQDAKEEANKAMGKKTSEGVTNEKGTDSQAMEEEKPEGHV
binding (PGK1-Flag): no binding | binding [1]: no binding

B4: CDC37 (protein, UniProt Q16543 1-378)
chain: MVDYSVWDHIEVSDDEDETHPNIDTASLFRWRHQARVERMEQFQKEKEELDRGCRECKRKVAECQRKLKELEVAEGGKAELERLQAEAQQLRKEERSWEQKLEEMRKKEKSMPWNVDTLSKDGFSKSMVNTKPEKTEEDSEEVREQKHKTFVEKYEKQIKHFGMLRRWDDSQKYLSDNVHLVCEETANYLVIWCIDLEVEEKCALMEQVAHQTIVMQFILELAKSLKVDPRACFRQFFTKIKTADRQYMEGFNDELEAFKERVRGRAKLRIEKAMKEYEEEERKKRLGPGGLDPVEVYESLPEELQKCFDVKDVQMLQDAISKMDPTDAKYHMQRCIDSGLWVPNSKASEAKEGEEAGPGDPLLEAVPKTGDEKDVSV
binding (PGK1-Flag): no binding | binding [1]: no binding
